Assay results taken from patent publication US9486471B2, “Combination therapy for the treatment of cancer” (McMaster University, priority 2012, dated 2016).

Test system: v1H9-Oct4-GFP neoplastic hPSC
Experiment: Chemical screening of neoplastic hPSC reporter line (GFP / Hoechst, loss of pluripotency)
Format: cell-based, human
Details: thioridazine vs fluphenazine and prochlorperazine
Protocol: In Vitro Culture Platform for Normal and Neoplastic hPSCs. Chemical screens involved v1H9-Oct4-GFP cells seeded at 5,000 cells per well in mouse embryonic fibroblast conditioned media (MEFCM) supplemented with 8 ng/ml bFGF. 24 hours later the media was exchanged for MEFCM with compounds at 10 μM and 0.1% DMSO, 0.1% DMSO (−BMP4) or 100 ng/ml of BMP4 and 0.1% DMSO (+BMP4) for 48 hours before being exchanged with fresh media with compound for a further 24 h (total compound treatment time 72 h) prior to being fixed and prepared for automated imaging and plate reader analysis. Confluent H9 & fibroblast-derived iPSC were seeded at 10,000 cells per well in MEFCM supplemented with 8 ng/ml bFGF. 24 hours later the cells were treated with compounds at 10 μM and 0.1% DMSO, 0.1% DMSO (−BMP4) or 100 ng/ml of BMP4 and 0.1% DMSO (+BMP4). […] On day 5, hPSC's were fixed and prepared for automated imaging and plate reader analysis. […]
Imaging Neoplastic hPSC. […] Images were acquired at 10× N.A with an Arrayscan HCS VTI Reader (Cellomics) by means of epi-fluorescence illumination and standard filter sets.
Image Analysis. […] For normal cell lines, the fraction of Alexa-Fluor-647-positive cells was quantified. Images and well-level data were stored and analysed in a Columbus Database (Perkin Elmer) and further data analysis, compounds registration and hit identification in ActivityBase (IDBS). […]

SMILES: CSc1ccc2c(c1)N(CCC1CCCCN1C)c1ccccc1S2 (racemic) [thioridazine, 10-{2-[(RS)-1-Methylpiperidin-2-yl]ethyl}-2-methylsulfanylphenothiazine]
- EC50 compared among the three phenothiazines: lowest EC50
